Test results published in patent US20190015423A1, “REGULATION OF GENE EXPRESSION BY MODULATING PRIMARY CILIA LENGTH” (THE TRUSTEES OF COLUMBIA UNIVERSITY IN THE CITY OF NEW YORK, priority 2016, published 2019).
Where a name gives a salt, the structure may show the parent alone. Marks after values point to notes of the source that are not given here.

Test: μCT analysis of OVX and Sham animals
Type: in vivo, mice
Conditions: Table 6; for Total area: ulnar midshaft - cortical, non-loaded, 20 mg/kg fenoldopam, mean±SEM

For `Oc1ccc(C2CNCCc3c2cc(O)c(O)c3Cl)cc1` (stereo not drawn) [fenoldopam, Fenoldopam mesylate], which “Bone Mineral Density” value (cortical, OVX) is on record?
Its value is 1079.5 ± 3.9 mg/mm^3.

What about the “Bone vol./Total vol.” value (cortical, OVX) of the same compound?
The value was 0.849 ± 0.003.

What about the Cortical area (cortical, OVX) of the same compound?
Its Cortical area is 0.261 ± 0.005 mm^2.

What about the Cortical thickness (cortical, OVX) of the same compound?
The Cortical thickness was 0.151 ± 0.003 mm.

And the Imax (cortical, OVX)?
Its Imax is 0.018 ± 0.001 mm^4.

What about the Imin (cortical, OVX) of the same compound?
The Imin was 0.004 ± 0.001 mm^4.

And the Marrow area (cortical, OVX)?
The Marrow area was 0.046 ± 0.001 mm^2.

What about the “Bone Mineral Density” value (cortical, Sham) of the same compound?
The value was 1089.5 ± 5.7 mg/mm^3.

What about the “Bone vol./Total vol.” value (cortical, Sham) of the same compound?
The value was 0.859 ± 0.002.

What about the Cortical area (cortical, Sham) of the same compound?
The Cortical area was 0.276 ± 0.008 mm^2.

And the Cortical thickness (cortical, Sham)?
The Cortical thickness was 0.162 ± 0.001 mm.

And the Imax (cortical, Sham)?
The Imax was 0.019 ± 0.002 mm^4.

What about the Imin (cortical, Sham) of the same compound?
Its Imin is 0.005 ± 0.001 mm^4.

And the Marrow area (cortical, Sham)?
Its Marrow area is 0.046 ± 0.001 mm^2.

What about the “Bone Mineral Density” value (trabecular, OVX) of the same compound?
The value was 201.9 ± 10.2 mg/mm^3.

And the “Conn. Dens” value (trabecular, OVX)?
Its value is 187.6 ± 20.0 mm^−3.

What about the SMI (trabecular, OVX) of the same compound?
Its SMI is 1.807 ± 0.067+.

And the “Tb. Number” value (trabecular, OVX)?
The value was 4.853 ± 0.139* mm^−1.

And the “Tb. Spacing” value (trabecular, OVX)?
Its value is 0.208 ± 0.006+ mm.

And the “Tb. Thickness” value (trabecular, OVX)?
The value was 0.0395 ± 0.0010 mm.

And the “Bone Mineral Density” value (trabecular, Sham)?
The value was 268.8 ± 10.3 mg/mm^3.

What about the “Conn. Dens” value (trabecular, Sham) of the same compound?
Its value is 232.8 ± 22.6 mm^−3.

And the SMI (trabecular, Sham)?
The SMI was 1.362 ± 0.083+.

And the “Tb. Number” value (trabecular, Sham)?
Its value is 5.384 ± 0.159* mm^−1.

And the “Tb. Spacing” value (trabecular, Sham)?
Its value is 0.182 ± 0.005+ mm.

What about the “Tb. Thickness” value (trabecular, Sham) of the same compound?
Its value is 0.0445 ± 0.0015 mm.

What about the Total area (OVX) of the same compound?
The Total area was 0.307 ± 0.005 mm^2.

What about the Total area (Sham) of the same compound?
Its Total area is 0.322 ± 0.009 mm^2.

What about the “Bone vol./Total vol.” value (ulnar proximal epiphysis - trabecular, OVX) of the same compound?
Its value is 0.130 ± 0.008.

What about the “Bone vol./Total vol.” value (ulnar proximal epiphysis - trabecular, Sham) of the same compound?
The value was 0.183 ± 0.008.
